Assay [1] deals with Flag-HIF-1α (UniProt Q16665). In words: affinity purification with mass spectrometry; immunoprecipitation and mass spectrometry from HEK293T with exogeneous Myc-DAB2IP or Flag-HIF-1α overexpression; Sequest, Uniprot-Homo database.
Assay [2] deals with T1, Myc-DAB2IP (full length: 1-1189) (UniProt Q5VWQ8).
T1 sequence: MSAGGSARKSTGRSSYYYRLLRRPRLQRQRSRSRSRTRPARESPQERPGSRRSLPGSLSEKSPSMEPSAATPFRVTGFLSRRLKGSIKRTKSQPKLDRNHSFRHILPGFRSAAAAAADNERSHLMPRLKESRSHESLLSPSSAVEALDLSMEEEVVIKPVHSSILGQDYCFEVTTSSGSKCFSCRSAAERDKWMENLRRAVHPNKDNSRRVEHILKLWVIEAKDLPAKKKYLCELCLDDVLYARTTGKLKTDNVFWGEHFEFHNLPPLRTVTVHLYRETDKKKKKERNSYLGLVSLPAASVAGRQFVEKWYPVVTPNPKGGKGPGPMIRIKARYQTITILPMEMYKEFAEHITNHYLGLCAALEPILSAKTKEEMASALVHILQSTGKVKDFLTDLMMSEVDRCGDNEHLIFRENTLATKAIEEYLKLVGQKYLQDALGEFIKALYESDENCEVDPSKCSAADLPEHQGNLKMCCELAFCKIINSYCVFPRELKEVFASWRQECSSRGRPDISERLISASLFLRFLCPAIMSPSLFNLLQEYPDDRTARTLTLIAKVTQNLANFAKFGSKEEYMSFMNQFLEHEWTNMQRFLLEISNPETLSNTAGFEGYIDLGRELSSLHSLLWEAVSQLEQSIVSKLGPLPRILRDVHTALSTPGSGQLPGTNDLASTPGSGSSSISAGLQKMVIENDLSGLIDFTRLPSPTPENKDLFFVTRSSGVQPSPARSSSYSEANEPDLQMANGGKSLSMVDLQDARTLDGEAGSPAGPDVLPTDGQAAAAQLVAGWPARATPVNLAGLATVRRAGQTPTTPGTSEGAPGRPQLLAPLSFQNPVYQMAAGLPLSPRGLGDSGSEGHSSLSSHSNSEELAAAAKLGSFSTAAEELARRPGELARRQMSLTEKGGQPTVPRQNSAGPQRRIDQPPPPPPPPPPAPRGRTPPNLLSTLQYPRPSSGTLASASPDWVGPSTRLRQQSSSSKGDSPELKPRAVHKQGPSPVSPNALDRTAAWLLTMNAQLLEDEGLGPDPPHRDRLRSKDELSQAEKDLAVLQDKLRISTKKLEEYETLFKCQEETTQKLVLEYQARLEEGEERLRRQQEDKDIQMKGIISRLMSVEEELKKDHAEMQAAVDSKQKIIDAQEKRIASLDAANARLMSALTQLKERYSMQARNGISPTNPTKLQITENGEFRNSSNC
The assay is described as above.

By UniProt entry, the sequences of proteins in these tests, tags left out.
UniProt Q16665: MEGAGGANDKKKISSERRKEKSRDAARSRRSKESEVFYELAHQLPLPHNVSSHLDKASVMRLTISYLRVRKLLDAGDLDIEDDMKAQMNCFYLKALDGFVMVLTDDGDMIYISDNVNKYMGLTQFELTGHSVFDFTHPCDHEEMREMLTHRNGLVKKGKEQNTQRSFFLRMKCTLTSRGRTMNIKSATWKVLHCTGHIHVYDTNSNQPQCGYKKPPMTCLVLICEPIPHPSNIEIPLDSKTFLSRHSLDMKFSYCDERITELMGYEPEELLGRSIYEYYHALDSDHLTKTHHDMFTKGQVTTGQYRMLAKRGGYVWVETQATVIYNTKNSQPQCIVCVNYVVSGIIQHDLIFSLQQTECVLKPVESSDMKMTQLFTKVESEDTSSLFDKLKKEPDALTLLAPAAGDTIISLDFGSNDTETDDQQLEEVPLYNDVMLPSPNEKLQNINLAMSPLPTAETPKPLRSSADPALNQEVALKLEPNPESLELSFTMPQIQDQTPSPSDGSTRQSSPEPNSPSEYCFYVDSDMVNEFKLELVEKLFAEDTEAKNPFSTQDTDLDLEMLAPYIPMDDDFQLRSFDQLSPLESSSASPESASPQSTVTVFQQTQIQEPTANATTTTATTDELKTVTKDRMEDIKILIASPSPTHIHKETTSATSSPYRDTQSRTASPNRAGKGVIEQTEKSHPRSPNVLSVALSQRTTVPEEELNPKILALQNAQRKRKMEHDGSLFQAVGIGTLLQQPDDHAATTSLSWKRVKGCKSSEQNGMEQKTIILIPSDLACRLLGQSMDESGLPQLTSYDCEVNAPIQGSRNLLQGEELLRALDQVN
UniProt Q9NT62: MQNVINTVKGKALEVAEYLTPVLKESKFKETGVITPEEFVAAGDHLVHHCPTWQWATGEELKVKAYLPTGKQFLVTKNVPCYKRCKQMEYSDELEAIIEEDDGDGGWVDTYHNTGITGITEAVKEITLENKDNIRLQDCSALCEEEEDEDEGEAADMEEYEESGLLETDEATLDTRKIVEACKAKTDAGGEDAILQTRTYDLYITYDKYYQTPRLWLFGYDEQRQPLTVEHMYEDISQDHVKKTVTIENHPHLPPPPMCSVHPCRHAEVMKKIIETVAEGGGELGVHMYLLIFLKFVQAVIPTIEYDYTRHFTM
UniProt Q9UNE7: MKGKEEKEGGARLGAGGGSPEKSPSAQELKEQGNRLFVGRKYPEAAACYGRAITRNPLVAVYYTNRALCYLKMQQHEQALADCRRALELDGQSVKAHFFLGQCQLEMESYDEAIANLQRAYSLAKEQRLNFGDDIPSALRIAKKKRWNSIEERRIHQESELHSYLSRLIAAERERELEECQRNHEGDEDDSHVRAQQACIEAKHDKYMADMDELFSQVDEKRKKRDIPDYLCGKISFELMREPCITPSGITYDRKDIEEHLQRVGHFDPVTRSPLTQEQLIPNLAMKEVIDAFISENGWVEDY
UniProt Q96LR5: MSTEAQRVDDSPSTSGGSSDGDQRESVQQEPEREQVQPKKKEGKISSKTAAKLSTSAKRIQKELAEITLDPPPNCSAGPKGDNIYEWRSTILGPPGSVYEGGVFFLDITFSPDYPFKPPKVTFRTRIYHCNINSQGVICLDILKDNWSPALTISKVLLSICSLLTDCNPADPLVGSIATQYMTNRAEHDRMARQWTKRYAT

Results are given in words; binding and its absence hold for the method and conditions named. Binding seen in cells or lysates may run through a third protein. A yes stands for co-enrichment or nearness to the bait. Other partners may have been found. For part of these data: Tags and fused reporters may be left off the sequences shown.

As for “ATG3 (from UniProt Q9NT62 1-314) (enzyme)”, the binding entry in assay [1] and in assay [2] was “binds” throughout.
On to “STUB1 (endogenous, HEK293T) (from UniProt Q9UNE7 1-303) (enzyme)”, for which the binding result in assay [1] and in assay [2] was “binds” in each case.
Regarding “UBE2E2 (from UniProt Q96LR5 1-201) (enzyme)”, the binding entry in assay [1] and in assay [2] was “binds” in each case.

Source of the values: PMC11166643.
